Reference: patent US10064843B2, “Bis-amide derivative and use thereof” (University-Industry Cooperation Group of Kyung Hee …, priority 2013, dated 2018)
Some results were stated once for a whole list of compounds, not compound by compound.

Test system: HCV replication cells
Assay: MTT cytotoxicity in HCV replication cells
Type: cell-based, human
Conditions: up to 10 μM, FIG. 7b

Row | Structure (SMILES) | cell viability
1 | Cc1ccc(C)c(C(=O)N(c2ccc(C(C)C)cc2)C(C(=O)NC2CCCCC2)c2ccc(Cl)cc2)c1 (centres unmarked) [WJCPA30, N-[(4-chloro-phenyl)-cyclohexylcarbamoyl-methyl]-N-(4-isopropyl-phenyl)-2,5-dimethyl-benzamide] | ≥ 80%
2 | COc1ccc(CCC(=O)N(c2ccc(Br)cc2)C(C(=O)NC2CCCCC2)c2ccc([N+](=O)[O-])cc2)cc1 (centres unmarked) [WJCPA133, N-(4-bromo-phenyl)-N-[cyclohexylcarbamoyl-(4-nitro-phenyl)-methyl]-3-(4-methoxy-phenyl)-propionamide] | ≥ 80%
